Experimental data published in the supplement of paper PMC12823440, “Inhibitors supercharge kinase turnover through native proteolytic circuits” (Nature, 2025).
This is one part of the list. Hit calls seldom repeat between salt and free forms of one compound.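 Kinases were expressed as nanoluciferase fusions in K562 cells and luminescence was read every 4 h between 2 and 18 h as percent of control, DMSO set to 100% and a positive control to 0%. A time point counts as decreased when the signal drops significantly (2 sigma). The hit call is the authors' own, does not follow from the count of time points alone, and its rule is not shown.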

Protein sequences, listed by entry. Tags and fused reporters are not part of them.
UniProt P49137, whole entry, looked up: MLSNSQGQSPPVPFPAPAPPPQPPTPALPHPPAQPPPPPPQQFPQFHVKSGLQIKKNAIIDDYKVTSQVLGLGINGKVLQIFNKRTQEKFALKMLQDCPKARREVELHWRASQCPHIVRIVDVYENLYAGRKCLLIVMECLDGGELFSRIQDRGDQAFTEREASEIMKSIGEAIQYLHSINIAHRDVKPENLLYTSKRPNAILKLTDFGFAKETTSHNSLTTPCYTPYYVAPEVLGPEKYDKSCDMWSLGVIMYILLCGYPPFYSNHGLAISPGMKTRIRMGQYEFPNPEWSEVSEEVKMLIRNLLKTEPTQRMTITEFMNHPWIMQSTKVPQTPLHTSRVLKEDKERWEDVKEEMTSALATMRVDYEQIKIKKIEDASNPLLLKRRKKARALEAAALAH

target: MAPKAPK2 (UniProt P49137); assay: kinase-Nluc reporter destabilization hit call (1 = scored as downregulated) (binary); higher = compound decreases kinase abundance; conditions: K562; 2-18 h

kinase-Nluc reporter destabilization hit call, inactive:
COc1ccc([C@@H]2CC(=O)c3c(O)cc(O)cc3O2)cc1O [Hesperetin] (10 µM) 0, N#Cc1c(-c2ccccc2)cc(-c2cc(Br)ccc2O)[nH]c1=O (10 µM) 0, Cc1c(CN2CCN(C(=O)[C@H](C)O)CC2)sc2c(N3CCOCC3)nc(-c3cnc(N)nc3)nc12 [Apitolisib] (10 µM) 0, NC1(Cc2ccc(Cl)cc2)CCN(c2ncnc3[nH]ccc23)CC1 (10 µM) 0, O=C(/C=C/c1ccc(O)c(O)c1)c1ccc(O[C@@H]2O[C@H](CO)[C@@H](O)[C@H](O)[C@H]2O)c(O)c1O [Marein] (10 µM) 0, CN(CC(=O)N(Cc1ccc(C2CCCCC2)cc1)c1ccc(C(=O)O)cc1)S(=O)(=O)c1c(F)c(F)c(F)c(F)c1F (2.5 µM) 0, CC(C)NC(=O)N1CC[C@H](NC2=Nc3cc(F)ccc3N(CC(F)F)c3ccc(Cl)cc32)C1 (10 µM) 0
